This is an account of results in article PMC9603860.

The chains behind the UniProt entries cited, without tags or fusion partners.
UniProt Q9WUL7: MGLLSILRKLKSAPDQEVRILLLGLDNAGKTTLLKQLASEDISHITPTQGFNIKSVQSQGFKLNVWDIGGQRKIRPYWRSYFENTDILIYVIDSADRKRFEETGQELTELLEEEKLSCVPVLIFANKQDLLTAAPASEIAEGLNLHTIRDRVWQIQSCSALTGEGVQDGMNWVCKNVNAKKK
UniProt P27546: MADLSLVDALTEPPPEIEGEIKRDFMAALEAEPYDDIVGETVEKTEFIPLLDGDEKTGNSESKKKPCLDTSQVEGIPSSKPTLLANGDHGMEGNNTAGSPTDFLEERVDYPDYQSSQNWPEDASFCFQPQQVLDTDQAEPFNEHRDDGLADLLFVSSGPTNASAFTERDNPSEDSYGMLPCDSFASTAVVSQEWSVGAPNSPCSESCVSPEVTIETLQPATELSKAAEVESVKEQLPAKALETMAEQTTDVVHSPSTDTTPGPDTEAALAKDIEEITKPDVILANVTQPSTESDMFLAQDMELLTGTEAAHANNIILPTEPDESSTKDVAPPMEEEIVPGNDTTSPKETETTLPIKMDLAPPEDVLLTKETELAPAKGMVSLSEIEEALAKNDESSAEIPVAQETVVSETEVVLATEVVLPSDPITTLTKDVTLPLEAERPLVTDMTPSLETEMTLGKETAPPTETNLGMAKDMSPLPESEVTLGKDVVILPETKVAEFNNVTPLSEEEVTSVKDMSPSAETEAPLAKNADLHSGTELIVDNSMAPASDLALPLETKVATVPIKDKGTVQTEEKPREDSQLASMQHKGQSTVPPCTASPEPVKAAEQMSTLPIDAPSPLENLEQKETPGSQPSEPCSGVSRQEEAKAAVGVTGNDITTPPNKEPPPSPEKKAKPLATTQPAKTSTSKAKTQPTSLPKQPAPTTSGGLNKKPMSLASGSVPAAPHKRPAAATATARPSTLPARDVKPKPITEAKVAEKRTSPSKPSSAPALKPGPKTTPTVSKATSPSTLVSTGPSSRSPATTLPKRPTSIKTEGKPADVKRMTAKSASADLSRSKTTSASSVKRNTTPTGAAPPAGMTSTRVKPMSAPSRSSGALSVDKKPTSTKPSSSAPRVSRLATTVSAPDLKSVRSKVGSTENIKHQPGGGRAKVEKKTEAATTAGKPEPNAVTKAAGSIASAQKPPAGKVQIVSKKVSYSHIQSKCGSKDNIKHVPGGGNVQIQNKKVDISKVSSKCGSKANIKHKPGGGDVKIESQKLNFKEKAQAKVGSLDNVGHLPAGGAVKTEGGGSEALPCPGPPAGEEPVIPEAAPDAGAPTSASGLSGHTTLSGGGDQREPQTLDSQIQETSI
UniProt Q9JHU4: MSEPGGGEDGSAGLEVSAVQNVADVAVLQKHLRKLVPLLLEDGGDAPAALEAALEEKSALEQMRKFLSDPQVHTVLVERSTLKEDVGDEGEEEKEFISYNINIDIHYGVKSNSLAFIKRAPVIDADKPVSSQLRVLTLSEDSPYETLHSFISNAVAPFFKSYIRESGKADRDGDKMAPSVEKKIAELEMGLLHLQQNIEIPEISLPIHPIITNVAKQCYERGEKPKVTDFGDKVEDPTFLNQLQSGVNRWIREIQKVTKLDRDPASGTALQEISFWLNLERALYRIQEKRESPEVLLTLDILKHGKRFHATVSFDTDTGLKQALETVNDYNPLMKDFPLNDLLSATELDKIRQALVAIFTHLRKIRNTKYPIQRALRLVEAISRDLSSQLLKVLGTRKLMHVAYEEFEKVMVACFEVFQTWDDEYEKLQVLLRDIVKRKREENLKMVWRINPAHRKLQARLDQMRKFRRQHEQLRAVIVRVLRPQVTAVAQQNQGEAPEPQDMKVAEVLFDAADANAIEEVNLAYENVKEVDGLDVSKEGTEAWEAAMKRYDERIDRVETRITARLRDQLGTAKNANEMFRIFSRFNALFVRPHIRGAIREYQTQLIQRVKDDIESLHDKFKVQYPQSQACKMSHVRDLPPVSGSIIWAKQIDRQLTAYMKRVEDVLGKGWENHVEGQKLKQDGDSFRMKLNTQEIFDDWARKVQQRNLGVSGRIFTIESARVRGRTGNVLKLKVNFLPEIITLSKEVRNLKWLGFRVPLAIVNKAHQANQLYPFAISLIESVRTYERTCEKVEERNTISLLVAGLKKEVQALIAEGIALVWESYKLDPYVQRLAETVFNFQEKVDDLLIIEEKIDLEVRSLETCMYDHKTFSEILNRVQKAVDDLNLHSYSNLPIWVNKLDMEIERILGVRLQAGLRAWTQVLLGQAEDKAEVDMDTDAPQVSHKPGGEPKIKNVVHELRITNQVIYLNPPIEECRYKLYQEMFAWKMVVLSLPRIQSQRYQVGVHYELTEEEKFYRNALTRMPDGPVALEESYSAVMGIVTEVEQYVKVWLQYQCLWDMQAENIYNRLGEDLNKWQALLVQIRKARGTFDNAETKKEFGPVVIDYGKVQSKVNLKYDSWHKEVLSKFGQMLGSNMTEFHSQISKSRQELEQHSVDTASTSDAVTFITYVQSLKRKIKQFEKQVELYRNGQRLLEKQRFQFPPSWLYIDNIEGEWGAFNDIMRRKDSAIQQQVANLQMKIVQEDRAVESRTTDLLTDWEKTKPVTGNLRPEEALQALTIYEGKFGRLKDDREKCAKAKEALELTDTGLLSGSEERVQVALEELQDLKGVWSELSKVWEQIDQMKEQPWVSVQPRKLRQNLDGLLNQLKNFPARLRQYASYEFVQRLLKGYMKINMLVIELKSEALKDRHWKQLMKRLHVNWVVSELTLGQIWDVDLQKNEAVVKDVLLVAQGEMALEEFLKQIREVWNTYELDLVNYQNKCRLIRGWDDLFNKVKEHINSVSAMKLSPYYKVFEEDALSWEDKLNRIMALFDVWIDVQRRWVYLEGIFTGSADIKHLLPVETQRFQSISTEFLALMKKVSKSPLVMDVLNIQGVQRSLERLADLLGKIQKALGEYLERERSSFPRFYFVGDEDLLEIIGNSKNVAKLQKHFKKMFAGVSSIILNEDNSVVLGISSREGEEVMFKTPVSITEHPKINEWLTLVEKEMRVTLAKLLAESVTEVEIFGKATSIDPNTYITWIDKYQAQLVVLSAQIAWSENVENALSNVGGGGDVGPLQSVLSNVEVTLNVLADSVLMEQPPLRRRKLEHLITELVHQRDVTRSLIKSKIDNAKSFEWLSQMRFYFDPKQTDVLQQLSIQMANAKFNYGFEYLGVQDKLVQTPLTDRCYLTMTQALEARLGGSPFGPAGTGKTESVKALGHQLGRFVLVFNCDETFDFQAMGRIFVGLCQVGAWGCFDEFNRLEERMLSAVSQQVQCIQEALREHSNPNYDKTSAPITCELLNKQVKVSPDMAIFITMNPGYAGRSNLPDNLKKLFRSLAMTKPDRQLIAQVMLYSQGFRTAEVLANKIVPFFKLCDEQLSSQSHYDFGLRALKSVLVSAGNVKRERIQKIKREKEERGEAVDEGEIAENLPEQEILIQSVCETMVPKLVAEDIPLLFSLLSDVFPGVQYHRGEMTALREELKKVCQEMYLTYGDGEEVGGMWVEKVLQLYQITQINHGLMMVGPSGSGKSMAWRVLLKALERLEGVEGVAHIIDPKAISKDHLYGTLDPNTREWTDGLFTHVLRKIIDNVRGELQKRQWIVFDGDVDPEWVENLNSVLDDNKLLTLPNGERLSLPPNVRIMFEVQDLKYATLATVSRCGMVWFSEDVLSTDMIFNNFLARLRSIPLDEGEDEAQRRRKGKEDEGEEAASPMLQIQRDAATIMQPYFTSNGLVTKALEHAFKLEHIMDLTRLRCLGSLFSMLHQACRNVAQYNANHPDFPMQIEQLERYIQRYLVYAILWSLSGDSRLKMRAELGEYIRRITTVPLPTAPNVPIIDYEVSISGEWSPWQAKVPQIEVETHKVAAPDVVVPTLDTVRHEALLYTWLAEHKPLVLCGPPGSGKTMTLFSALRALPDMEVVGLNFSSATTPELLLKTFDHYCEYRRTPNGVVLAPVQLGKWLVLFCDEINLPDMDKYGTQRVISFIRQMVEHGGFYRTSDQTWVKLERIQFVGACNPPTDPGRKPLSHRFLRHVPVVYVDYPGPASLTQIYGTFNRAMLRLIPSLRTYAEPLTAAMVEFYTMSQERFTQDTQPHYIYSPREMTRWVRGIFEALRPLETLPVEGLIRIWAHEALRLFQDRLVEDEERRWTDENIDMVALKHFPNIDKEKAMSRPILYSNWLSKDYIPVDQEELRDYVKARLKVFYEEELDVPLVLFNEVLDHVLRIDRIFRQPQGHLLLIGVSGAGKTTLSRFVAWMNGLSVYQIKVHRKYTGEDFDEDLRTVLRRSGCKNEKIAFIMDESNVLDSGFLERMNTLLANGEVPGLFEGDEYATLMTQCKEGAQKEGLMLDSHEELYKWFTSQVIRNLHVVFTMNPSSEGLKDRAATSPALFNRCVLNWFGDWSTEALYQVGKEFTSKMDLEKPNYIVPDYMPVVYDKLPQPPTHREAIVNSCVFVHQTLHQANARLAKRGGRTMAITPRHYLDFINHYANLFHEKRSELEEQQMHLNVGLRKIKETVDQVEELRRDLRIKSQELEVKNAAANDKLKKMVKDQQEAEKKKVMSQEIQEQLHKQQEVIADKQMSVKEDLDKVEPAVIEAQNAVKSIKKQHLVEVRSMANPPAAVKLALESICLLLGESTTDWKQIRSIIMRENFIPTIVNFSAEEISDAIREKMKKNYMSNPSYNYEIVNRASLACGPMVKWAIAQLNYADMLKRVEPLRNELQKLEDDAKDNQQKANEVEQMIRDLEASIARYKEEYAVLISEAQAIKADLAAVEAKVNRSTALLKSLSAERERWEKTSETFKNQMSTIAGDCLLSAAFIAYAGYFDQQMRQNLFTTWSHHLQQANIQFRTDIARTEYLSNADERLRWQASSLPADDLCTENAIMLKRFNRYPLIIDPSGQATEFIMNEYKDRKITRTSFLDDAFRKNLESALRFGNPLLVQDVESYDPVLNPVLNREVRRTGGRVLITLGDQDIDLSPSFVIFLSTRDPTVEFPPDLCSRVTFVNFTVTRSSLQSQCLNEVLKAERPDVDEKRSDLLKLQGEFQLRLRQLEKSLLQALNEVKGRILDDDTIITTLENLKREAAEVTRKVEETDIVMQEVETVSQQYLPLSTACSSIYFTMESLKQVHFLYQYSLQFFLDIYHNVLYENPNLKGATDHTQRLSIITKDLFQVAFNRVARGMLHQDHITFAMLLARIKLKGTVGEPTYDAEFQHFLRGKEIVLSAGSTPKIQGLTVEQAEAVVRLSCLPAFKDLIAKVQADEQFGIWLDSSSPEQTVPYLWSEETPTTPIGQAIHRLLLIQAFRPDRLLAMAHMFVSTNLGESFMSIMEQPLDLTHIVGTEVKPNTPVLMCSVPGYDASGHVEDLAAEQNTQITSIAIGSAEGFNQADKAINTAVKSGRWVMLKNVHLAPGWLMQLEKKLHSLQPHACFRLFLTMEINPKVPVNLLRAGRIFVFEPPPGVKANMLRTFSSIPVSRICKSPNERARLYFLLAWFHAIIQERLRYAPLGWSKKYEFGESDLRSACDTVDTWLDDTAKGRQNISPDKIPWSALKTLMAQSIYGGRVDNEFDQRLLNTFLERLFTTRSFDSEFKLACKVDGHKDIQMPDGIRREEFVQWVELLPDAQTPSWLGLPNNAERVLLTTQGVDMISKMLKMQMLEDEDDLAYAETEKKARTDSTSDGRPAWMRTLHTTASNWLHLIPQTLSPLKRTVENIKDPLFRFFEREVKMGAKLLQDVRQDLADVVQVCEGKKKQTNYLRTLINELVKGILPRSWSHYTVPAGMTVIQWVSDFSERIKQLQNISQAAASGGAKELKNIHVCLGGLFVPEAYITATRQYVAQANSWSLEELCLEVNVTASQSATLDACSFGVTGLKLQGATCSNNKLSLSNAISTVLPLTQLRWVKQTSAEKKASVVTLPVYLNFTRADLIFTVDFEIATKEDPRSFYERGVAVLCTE
UniProt P50096: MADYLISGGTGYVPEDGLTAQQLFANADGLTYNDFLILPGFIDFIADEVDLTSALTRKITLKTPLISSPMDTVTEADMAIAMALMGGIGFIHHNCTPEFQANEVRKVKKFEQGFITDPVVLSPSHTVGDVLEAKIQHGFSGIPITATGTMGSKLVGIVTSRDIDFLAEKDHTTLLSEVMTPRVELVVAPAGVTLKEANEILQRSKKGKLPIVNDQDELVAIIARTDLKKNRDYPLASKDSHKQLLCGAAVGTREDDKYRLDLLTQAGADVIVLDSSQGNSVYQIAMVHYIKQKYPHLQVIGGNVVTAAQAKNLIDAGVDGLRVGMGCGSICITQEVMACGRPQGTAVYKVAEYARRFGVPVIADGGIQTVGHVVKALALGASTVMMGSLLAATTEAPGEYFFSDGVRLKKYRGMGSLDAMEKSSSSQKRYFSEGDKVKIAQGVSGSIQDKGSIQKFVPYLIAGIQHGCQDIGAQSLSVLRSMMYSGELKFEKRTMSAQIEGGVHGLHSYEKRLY

No constants are given. Whether binding was seen depends on the method and setting. Binding seen in cells or lysates may run through a third protein. These calls come from enrichment with a bait or labelling near it, and not all partners need be listed.

The chains are these.
T1: USP48 (endogenous retinal USP48) (mouse (endogenous in retina)) (UniProt Q3V0C5)
T1 sequence: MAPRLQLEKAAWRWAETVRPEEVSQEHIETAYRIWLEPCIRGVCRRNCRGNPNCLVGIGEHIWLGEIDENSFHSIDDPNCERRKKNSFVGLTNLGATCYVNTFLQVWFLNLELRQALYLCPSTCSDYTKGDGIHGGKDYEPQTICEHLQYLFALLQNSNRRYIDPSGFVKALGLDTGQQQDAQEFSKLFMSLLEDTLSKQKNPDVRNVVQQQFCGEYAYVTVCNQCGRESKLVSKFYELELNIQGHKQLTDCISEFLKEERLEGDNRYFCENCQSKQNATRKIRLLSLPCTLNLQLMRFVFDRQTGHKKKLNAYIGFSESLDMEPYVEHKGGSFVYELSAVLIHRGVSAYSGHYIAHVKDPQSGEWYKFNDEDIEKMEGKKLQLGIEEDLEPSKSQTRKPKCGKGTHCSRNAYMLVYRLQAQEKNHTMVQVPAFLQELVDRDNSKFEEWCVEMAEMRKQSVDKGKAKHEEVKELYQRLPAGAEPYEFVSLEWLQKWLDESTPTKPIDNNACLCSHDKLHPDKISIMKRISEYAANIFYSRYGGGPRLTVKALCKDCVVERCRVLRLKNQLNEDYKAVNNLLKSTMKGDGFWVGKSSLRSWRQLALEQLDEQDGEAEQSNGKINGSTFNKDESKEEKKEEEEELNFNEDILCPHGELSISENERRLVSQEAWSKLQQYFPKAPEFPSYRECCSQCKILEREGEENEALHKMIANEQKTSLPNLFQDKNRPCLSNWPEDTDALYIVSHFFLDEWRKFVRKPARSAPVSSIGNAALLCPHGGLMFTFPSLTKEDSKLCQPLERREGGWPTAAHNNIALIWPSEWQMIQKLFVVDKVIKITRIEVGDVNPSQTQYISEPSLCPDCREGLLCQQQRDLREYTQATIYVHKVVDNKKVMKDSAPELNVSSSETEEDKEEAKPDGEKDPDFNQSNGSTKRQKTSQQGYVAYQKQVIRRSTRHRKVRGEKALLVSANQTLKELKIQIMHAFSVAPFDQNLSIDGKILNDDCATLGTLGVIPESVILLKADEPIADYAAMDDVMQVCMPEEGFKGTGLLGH

B1: S-opsin (receptor, UniProt P51491 1-346)
chain: MSGEDDFYLFQNISSVGPWDGPQYHLAPVWAFRLQAAFMGFVFFVGTPLNAIVLVATLHYKKLRQPLNYILVNVSLGGFLFCIFSVFTVFIASCHGYFLFGRHVCALEAFLGSVAGLVTGWSLAFLAFERYVVICKPFGSIRFNSKHALMVVLATWIIGIGVSIPPFFGWSRFIPEGLQCSCGPDWYTVGTKYRSEYYTWFLFIFCFIIPLSLICFSYSQLLRTLRAVAAQQQESATTQKAEREVSHMVVVMVGSFCLCYVPYAALAMYMVNNRNHGLDLRLVTIPAFFSKSSCVYNPIIYCFMNKQFRACILEMVCRKPMADESDVSGSQKTEVSTVSSSKVGPH

The target of the experiment is T1, USP48 (endogenous retinal USP48) (mouse (endogenous in retina)). Briefly: affinity purification with mass spectrometry; non-denaturing immunoprecipitation of endogenous USP48 from lysates of twelve mouse retinas with anti-USP48 (ab72226), Protein G Sepharose, lysis buffer 50 mM TrisHCl pH 7.5, 1 mM EDTA, 150 mM NaCl, 0.5% Nonidet P-40; eluate by LC-MS/MS; proteins also present in the anti-GFP control sample ….
For the molecule “G protein subunit α-transducin 2 (from UniProt P50149 1-354)”, the binding result is recorded as “binds”.

Take “tubulin α-4A (from UniProt P68368 1-448)”: the binding result is given as “binds”.

“ADP-ribosylation factor-like GTPase 3 (from UniProt Q9WUL7 1-182)”: the binding entry is “binds”.

With Dynactin 2 (from UniProt Q99KJ8 1-402), the binding entry is recorded as “binds”.

In the case of rootletin (from UniProt Q8CJ40 1-2009), the binding result is “binds”.

Take “N-myc downstream regulated 1 (from UniProt Q62433 1-394)”: the binding entry is “binds”.

Take dynactin 1 (from UniProt O08788 1-1281): the binding entry was “binds”.

Consider “cytoplasmic dynein 1 light intermediate chain 1 (from UniProt Q8R1Q8 1-523)”, for which the binding entry is listed as “binds”.

Consider “microtubule-associated protein 2 (from UniProt P20357 1-1828)”, for which the binding entry was “binds”.

“Microtubule-associated protein 1B (from UniProt P14873 1-2464)”: the binding entry is listed as “binds”.

As for “microtubule-associated protein 4 (from UniProt P27546 1-1125)”, the binding result is “binds”.

With “Cytoplasmic dynein 1 heavy chain 1 (from UniProt Q9JHU4 1-4644)”, the binding result was “binds”.

Turning to “microtubule-associated protein 6 (from UniProt Q7TSJ2 1-906)”, the binding result is “binds”.

In the case of “cytoplasmic dynein 1 intermediate chain 2 (from UniProt O88487 1-612)”, the binding result was “binds”.

Take “Inosine Monophosphate dehydrogenase 1 (from UniProt P50096 1-514) (enzyme)”: the binding result is listed as “binds”.

For “Retinal-specific phospholipid-transporting ATPase ABCA4 (from UniProt O35600 1-2310)”, the binding result was “binds”.

In the case of “Crystallin Mu (from UniProt O54983 1-313)”, the binding entry was “binds”.

For the molecule B1, the binding result is “binds”.
